PubChem BioAssay AID1259254, NCATS – 2017

- Assay: 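Gene knock-downs that lead to re-replication, shown by excess G2 DNA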 (primary screen)
- Cells: human HCT116 colorectal cancer cells
- Knock-down reagent: single siRNA against human genes
- Duration: 3 days
- Read-out: 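Imaged Hoechst DNA stain sorts each cell into a cycle phase by DNA amount; per plate, G2 fraction set to 0% for non-targeting and 100% for GMNN siRNA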
- Reading the numbers: G2 robust z-score and G2 cells, % of GMNN control: higher = more G2 cells, more excess DNA replication
- Call rule: 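An siRNA counts as active if its G2 robust z-score lies at least 5 MADs above the screen median; here such calls match roughly 38% of GMNN control or more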
In all, the deposit lists about 59,000 reagents; below is a random part of them. About 1,550 of all reagents (2.6%) count as active. 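G2 share is only a proxy for re-replication; each gene was hit by three separate siRNAs, and active genes were retested.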 Unmarked entries are inactive. Reagents against one gene are numbered here. Not all columns of the deposit are shown. The record does not give: the amount of reagent.

no.	target gene	reagent no.	G2 robust z-score	G2 cells, % of GMNN control
1	TRIM4 (tripartite motif containing 4)	1	-1.42	-7.05
2	TRIM4 (tripartite motif containing 4)	2	0.401	5.79
3	TRIM4 (tripartite motif containing 4)	3	-0.0635	2.52
4	RPL32P16 (ribosomal protein L32 pseudogene 16)	1	-0.942	-3.66
5	RPL32P16 (ribosomal protein L32 pseudogene 16)	2	-0.743	-2.26
6	RPL32P16 (ribosomal protein L32 pseudogene 16)	3	3.29	26.1
7	PYM1 (PYM1 exon junction complex associated factor)	1	0.267	4.84
8	PYM1 (PYM1 exon junction complex associated factor)	2	-1.13	-4.96
9	PYM1 (PYM1 exon junction complex associated factor)	3	-0.85	-3.02
10	GUCY2D (guanylate cyclase 2D, retinal)	1	0.456	6.18
11	GUCY2D (guanylate cyclase 2D, retinal)	2	-0.205	1.52
12	GUCY2D (guanylate cyclase 2D, retinal)	3	-0.888	-3.28
13	USP48 (ubiquitin specific peptidase 48)	1	-1.02	-4.18
14	USP48 (ubiquitin specific peptidase 48)	2	-0.00979	2.9
15	USP48 (ubiquitin specific peptidase 48)	3	-1.07	-4.55
16	ENPP6 (ectonucleotide pyrophosphatase/phosphodiesterase 6)	1	0.158	4.08
17	ENPP6 (ectonucleotide pyrophosphatase/phosphodiesterase 6)	2	0.767	8.36
18	ENPP6 (ectonucleotide pyrophosphatase/phosphodiesterase 6)	3	0.6	7.19

5 entries from above, reduced to “G2 robust z-score”:
TRIM4 (tripartite motif containing 4) #2 = 0.401
TRIM4 (tripartite motif containing 4) #3 = -0.0635
RPL32P16 (ribosomal protein L32 pseudogene 16) #1 = -0.942
RPL32P16 (ribosomal protein L32 pseudogene 16) #2 = -0.743
RPL32P16 (ribosomal protein L32 pseudogene 16) #3 = 3.29

More entries:
no.	target gene	reagent no.	G2 robust z-score	G2 cells, % of GMNN control
19	GMDS (GDP-mannose 4,6-dehydratase)	1	-1.09	-4.72
20	GMDS (GDP-mannose 4,6-dehydratase)	2	3.24	25.8
21	GMDS (GDP-mannose 4,6-dehydratase)	3	2.14	18
22	TMEM218 (transmembrane protein 218)	1	-0.0533	2.59
23	TMEM218 (transmembrane protein 218)	2	0.504	6.51
24	TMEM218 (transmembrane protein 218)	3	-0.199	1.57
25	HID1 (HID1 domain containing)	1	-0.315	0.755
26	HID1 (HID1 domain containing)	2	0.0948	3.63
27	HID1 (HID1 domain containing)	3	-0.00325	2.94
28	PMF1 (polyamine modulated factor 1)	1	0.0259	3.15
29	PMF1 (polyamine modulated factor 1)	2	0.109	3.73
30	PMF1 (polyamine modulated factor 1)	3	1.19	11.3
31	ZNF273 (zinc finger protein 273)	1	2.93	23.6
32	ZNF273 (zinc finger protein 273)	2	0.255	4.76
33	ZNF273 (zinc finger protein 273)	3	-0.554	-0.928
34	GPRC5B (G protein-coupled receptor class C group 5 member B)	1	-0.924	-3.53
35	GPRC5B (G protein-coupled receptor class C group 5 member B)	2	2.41	19.9
36	GPRC5B (G protein-coupled receptor class C group 5 member B)	3	-0.292	0.914
37	DSE (dermatan sulfate epimerase)	1	-0.351	0.501
38	DSE (dermatan sulfate epimerase)	2	-0.0912	2.33
39	DSE (dermatan sulfate epimerase)	3	-0.483	-0.433
40	WDR62 (WD repeat domain 62)	1	-0.6	-1.25
41	WDR62 (WD repeat domain 62)	2	-0.114	2.16
42	WDR62 (WD repeat domain 62)	3	-0.524	-0.722
43	SERPING1 (serpin family G member 1)	1	-0.42	0.0105
44	SERPING1 (serpin family G member 1)	2	-0.115	2.16
45	SERPING1 (serpin family G member 1)	3	0.321	5.23
46	CACNA1I (calcium voltage-gated channel subunit alpha1 I)	1	5.54 (active)	41.9
47	CACNA1I (calcium voltage-gated channel subunit alpha1 I)	2	-0.592	-1.2
48	CACNA1I (calcium voltage-gated channel subunit alpha1 I)	3	0.116	3.78
